Experimental data as given in US20160311912A1.
Results are given in words; binding and its absence hold for the method and conditions named. Some results given as binding are weak or reduced against the parent protein; the word gives no strength. Tags and fused reporters may be left off the sequences shown.

Protein sequences, listed by entry. Tags and fused reporters are not part of them. Lines headed by an entry give the natural chain unless they say otherwise; changes in a name come on top.
UniProt P47871: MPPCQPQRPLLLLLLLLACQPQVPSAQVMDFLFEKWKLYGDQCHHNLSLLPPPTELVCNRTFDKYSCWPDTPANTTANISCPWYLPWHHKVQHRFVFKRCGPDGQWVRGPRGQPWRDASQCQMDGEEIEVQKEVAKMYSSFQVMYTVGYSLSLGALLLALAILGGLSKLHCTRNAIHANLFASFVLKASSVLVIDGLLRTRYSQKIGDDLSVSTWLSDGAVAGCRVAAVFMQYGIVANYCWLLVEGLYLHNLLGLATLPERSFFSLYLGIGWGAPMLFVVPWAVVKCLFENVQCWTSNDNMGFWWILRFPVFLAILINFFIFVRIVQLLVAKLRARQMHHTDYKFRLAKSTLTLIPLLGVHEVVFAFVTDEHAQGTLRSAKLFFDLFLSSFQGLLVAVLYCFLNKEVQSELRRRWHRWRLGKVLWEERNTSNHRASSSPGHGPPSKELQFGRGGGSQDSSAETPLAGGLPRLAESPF

Molecular target: human glucagon receptor in the mAb5:glucagon receptor crystal structure (human) (UniProt P47871)
Experiment: crystal structure of the complex

- binding: binds
B1: anti-glucagon receptor antagonist antibody mAb5 (antibody, V domains shown)
VH: QVQLVQSGAEVKKPGASVKVSCKASGYTFTDFSVHWVRQAPGQGLEWMGWINTETDETSYADDFKGRVTMTRDTSTSTVYMELSSLRSEDTAVYYCVKSRYWSYGPPDYWGQGTTVTVSS
VL: DIQMTQSPSSLSASVGDRVTITCQASQNIRTAVVWYQQKPGKAPKLLIYLASNRHSGVPSRFSGSGSGTDFTFTISSLQPEDIATYYCLQHWTYPFTFGGGTKVEIKR
